Reference: patent publication US20240360146A1, “BRUTON'S TYROSINE KINASE AND MUTANT DEGRADER, COMPOSITION AND APPLICATION THEREOF” (HANGZHOU HEALZEN THERAPEUTICS CO., LTD., priority 2021, published 2024)

Protein sequences, listed by entry. Tags and fused reporters are not part of them.
UniProt Q06187, whole entry: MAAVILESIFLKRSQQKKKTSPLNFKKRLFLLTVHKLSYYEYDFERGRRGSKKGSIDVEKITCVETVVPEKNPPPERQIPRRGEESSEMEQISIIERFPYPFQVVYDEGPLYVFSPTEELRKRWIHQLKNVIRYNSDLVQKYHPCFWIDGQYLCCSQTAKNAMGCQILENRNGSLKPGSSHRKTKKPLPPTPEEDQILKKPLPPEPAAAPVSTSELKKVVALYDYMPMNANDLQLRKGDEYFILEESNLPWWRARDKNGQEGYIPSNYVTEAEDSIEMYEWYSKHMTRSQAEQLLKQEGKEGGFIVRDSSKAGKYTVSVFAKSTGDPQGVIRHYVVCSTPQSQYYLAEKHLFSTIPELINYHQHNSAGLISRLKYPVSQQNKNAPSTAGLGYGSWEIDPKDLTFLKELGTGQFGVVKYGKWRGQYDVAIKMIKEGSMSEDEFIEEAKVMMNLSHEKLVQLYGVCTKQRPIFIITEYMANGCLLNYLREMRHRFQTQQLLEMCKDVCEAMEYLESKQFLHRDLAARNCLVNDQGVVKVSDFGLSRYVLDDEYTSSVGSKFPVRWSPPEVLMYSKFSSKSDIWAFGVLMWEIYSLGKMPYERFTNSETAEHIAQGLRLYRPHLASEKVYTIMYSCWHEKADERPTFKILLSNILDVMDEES

Columns and labels:
BTK = BTK (Homo sapiens, UniProt Q06187); test: BTK degradation activity test in Mino cells; conditions: read-out: DC50 (BTK degradation activity), 16 h incubation, Western blot or Elisa
Description: Mino cell line cells were seeded at 500,000 to 1,000,000 cells/well in a 6-well plate. The compounds were diluted to different concentrations and added to the plate, and after 16 h of incubation, cells were harvested. After lysing the cells, the total protein concentration in each well was determined using the BCA method. The amount of BTK was determined using Western blot or Elisa method. The amount of undegraded BTK protein at each drug concentration was compared with the amount of BTK protein in the blank control group to calculate the degradation rate. The degradation curve was drawn based on the degradation rate at each concentration, and the half degradation concentration (DC50) was calculated by fitting.

OCI-LY10 cells = test: Inhibitory activity on OCI-LY10 cell proliferation (MTS); conditions: read-out: OCI-LY10 IC50, 72 h
Description: (§1) The anti-tumor efficacy of the compounds was tested by measuring their inhibitory effects on OCI-LY10 and Mino cell proliferation. OCI-LY10 and Mino cells were cultured in RPMI-1640 medium containing 10% fetal calf serum. OCI-LY10 and Mino cells were digested, inoculated in a 96-well plate at a cell concentration of 10000 cells/well, and incubated overnight at 37° C., 5% CO2. Compounds of different concentrations (1000 nM, 4-fold dilution, 8 points) were added to the 96-well plate and incubated for 72 h (LY10) or 168 h (Mino) at 37° C. and 5% CO2, and then 20 uL of MTS was added to each well. After incubation for 2 h, 25 μl of 10% SDS was added to each well to terminate the reaction. The absorbance at 490 nm and 650 nm were measured with a microplate reader. IC50 was calculated using GraphPad Prism 5.0.

Mino cells = test: Inhibitory activity on Mino cell proliferation (MTS); conditions: read-out: Mino IC50, 168 h incubation
Description: as §1

DC50 (BTK)	IC50 (OCI-LY10 cells)	SMILES	IC50 (Mino cells)
< 1 nM	0.72 nM	CN1CCN([C@@H]2CCCN(c3nnc(C(N)=O)c(Nc4ccc(C5CCN(CC6(F)CCN(c7ccc8c(c7)C(=O)N(C7CCC(=O)NC7=O)C8=O)CC6)CC5)cc4)n3)C2)C1=O (stereo partly drawn)	4.98 nM
< 1 nM	–	CN1CCN([C@@H]2CCCN(c3nnc(C(N)=O)c(Nc4cc(F)c(N5CCN(CC6CCN(c7ccc8c(c7)C(=O)N(C7CCC(=O)NC7=O)C8=O)C6)CC5)cc4F)n3)C2)C1=O (stereo partly drawn)	–
< 1 nM	–	CN1CCN([C@@H]2CCCN(c3nnc(C(N)=O)c(Nc4ccc(N5CCN(CC6CCN(c7ccc8c(c7)C(=O)N(C7CCC(=O)NC7=O)C8=O)C6)CC5)c(C(F)(F)F)c4)n3)C2)C1=O (stereo partly drawn)	–
< 1 nM	–	CN1CCN([C@@H]2CCCN(c3nnc(C(N)=O)c(Nc4ccc(N5CCN(CC6CCN(c7ccc8c(c7)C(=O)N(C7CCC(=O)NC7=O)C8=O)C6)CC5)c(F)c4F)n3)C2)C1=O (stereo partly drawn)	–
< 1 nM	< 1 nM	CN1CCN([C@@H]2CCCN(c3nnc(C(N)=O)c(Nc4ccc(N5CCN(CC6CCN(c7ccc8c(c7)CN(C7CCC(=O)NC7=O)C8=O)C6)CC5)c(F)c4)n3)C2)C1=O (stereo partly drawn)	6.85 nM

Structures were worked out from names or drawings and are uncertain.
